In article doi:10.1101/2020.11.11.377994:
Results are given in words; binding and its absence hold for the method and conditions named.

Molecular target: putative dephospho-CoA kinase from Aquifex aeolicus, wild type (DPCK-WT) (Aquifex aeolicus) (UniProt O67792)
Assay: SEC

B1: putative dephospho-CoA kinase from Aquifex aeolicus, wild type (DPCK-WT) (enzyme, UniProt O67792 1-196)
chain: MKRIGLTGNIGCGKSTVAQMFRELGAYVLDADKLIHSFYRKGHPVYEEVVKTFGKGILDEEGNIDRKKLADIVFKDEEKLRKLEEITHRALYKEIEKITKNLSEDTLFILEASLLVEKGTYKNYDKLIVVYAPYEVCKERAIKRGMSEEDFERRWKKQMPIEEKVKYADYVIDNSGSIEETYKQVKKVYEELTRDP
  binding: no binding
